No constants are given. Whether binding was seen depends on the method and setting. Some entries that bind do so weakly or less than the wild type.
Molecular target: purified BCMA protein absorbed to a tissue slide (UniProt Q02223)
Assay: immunohistochemistry; purified BCMA absorbed to a tissue slide; antibody at 5.0 and 50.0 µg/mL

Chains of the proteins cited; added tags and fusions are not shown. Residues count along the entry.
UniProt Q02223, residues 1-54: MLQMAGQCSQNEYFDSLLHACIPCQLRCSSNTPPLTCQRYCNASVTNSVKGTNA

binding: binds
B1: humanized mouse antibody from which the scFv portion of the CTX120 CAR was derived (antibody, V domains shown)
VH: QVQLVQSGAELKKPGASVKVSCKASGNTLTNYVIHWVRQAPGQRLEWMGYILPYNDLTKYSQKFQGRVTITRDKSASTAYMELSSLRSEDTAVYYCTRWDWDGFFDPWGQGTTVTVSS
VL: EIVMTQSPATLSVSPGERASISCRASQSLVHSNGNTHLHWYQQRPGQAPRLLIYSVSNRFSEVPARFSGSGSGTDFTLTISSVESEDFAVYYCSQTSHIPYTFGGGTKLEIK
